Data from PubChem BioAssay AID743255 (National Center for Advancing Translational Sciences (NCATS), 2014).
The whole screen tested about 390,000 compounds, of which about 910 (0.23%) were called active. Inconclusive means that the source gave no clear call. Such entries were picked first, then a sample of the others. The call rests on the fitted dose curve; in most records, active means well fitted inhibition curve with a large enough effect; inconclusive means small, poorly fitted or top-dose-only effect; inactive means no such curve, though single readings can be large or run the other way. Potencies of inconclusive entries are doubtful fits and often do not repeat.

Protein sequences, listed by entry. Tags and fused reporters are not part of them. Lines headed by an entry give the natural chain unless they say otherwise; changes in a name come on top.
UniProt O94782: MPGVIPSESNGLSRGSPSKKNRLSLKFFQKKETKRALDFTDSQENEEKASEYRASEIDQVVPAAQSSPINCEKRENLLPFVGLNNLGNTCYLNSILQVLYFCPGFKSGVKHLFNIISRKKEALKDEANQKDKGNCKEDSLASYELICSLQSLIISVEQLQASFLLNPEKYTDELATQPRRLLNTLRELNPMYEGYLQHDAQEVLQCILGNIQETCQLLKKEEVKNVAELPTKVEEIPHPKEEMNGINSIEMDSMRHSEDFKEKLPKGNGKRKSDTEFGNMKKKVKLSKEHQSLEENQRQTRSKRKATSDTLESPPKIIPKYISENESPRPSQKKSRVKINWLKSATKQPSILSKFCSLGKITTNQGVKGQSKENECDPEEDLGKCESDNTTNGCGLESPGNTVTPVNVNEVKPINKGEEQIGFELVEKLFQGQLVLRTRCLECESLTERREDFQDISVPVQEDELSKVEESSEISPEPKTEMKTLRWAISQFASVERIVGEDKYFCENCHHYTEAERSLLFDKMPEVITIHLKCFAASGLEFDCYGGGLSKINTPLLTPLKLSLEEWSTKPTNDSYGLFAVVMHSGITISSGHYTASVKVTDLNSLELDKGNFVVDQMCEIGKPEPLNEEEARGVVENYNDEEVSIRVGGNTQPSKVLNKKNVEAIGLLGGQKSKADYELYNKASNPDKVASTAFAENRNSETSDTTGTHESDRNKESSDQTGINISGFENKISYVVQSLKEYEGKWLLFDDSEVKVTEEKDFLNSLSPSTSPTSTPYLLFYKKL

Each compound was assayed against Ubiquitin carboxyl-terminal hydrolase 1 (Homo sapiens) (UniProt O94782) (assay: Inhibitors of USP1/UAF1: Primary Screen). Conditions: recombinant USP1/UAF1, Ub-Rhodamine cleavage fluorescence; activity change, negative = inhibition: at 57.1 µM (top of the series).
Text: Deubiquitinating enzymes (DUBs) are a class of enzymes that can cleave isopeptide bond formed between the C-terminal carboxylate of ubiquitin and a lysine side-chain amino group on the target protein. Among them, ubiquitin specific proteases (USPs) constitute the largest DUB family. Human USPs are emerging as promising targets for pharmacological intervention because of their connection to a number of human diseases, including prostate, colon and breast cancer (1, 2), pediatric acute lymphoblastic leukemia (3), and familial cylindromatosis (4). The advantage of inhibiting USPs lies in the potential specificity of therapeutic intervention that can lead to better efficacy and reduce nonspecific side effects. In a collaboration between the University of Delaware and the NIH Chemical Genomics Center, a high-throughput screen assay was developed to screen for USP1/UAF1 inhibitors. This miniaturized assay has a fluorescent read-out and is used to screen the NIH Molecular Libraries Small Molecule Repository (MLSMR) in order to identify a small molecule that inhibits USP1. NIH Chemical Genomics Center [NCGC] NIH Molecular Libraries Probe Centers Network [MLPCN] MLPCN Grant: DA030552 Assay Submitter (PI): Zhihao Zhuang, University of Delaware 1. Priolo, C., et al. (2006) The isopeptidase USP2a protects human prostate cancer from apoptosis. Cancer Res 66, 8625-8632 2. Popov, N., et al. (2007) The ubiquitin-specific protease USP28 is required for MYC stability. Nat Cell Biol 9, 765-774 3. De Pitta, C., et al. (2005) A leukemia-enriched cDNA microarray platform identifies new transcripts with relevance to the biology of pediatric acute lymphoblastic leukemia. Haematologica 90, 890-898 4. Kovalenko, A., et al. (2003) The tumour suppressor CYLD negatively regulates NF-kappaB signalling by deubiquitination. Nature 424, 801-805
3 microliters of reagents (buffer in columns 3 and 4 as negative control and 1nM USP1/UAF1 complex in columns 1, 2, and 5-48) are dispensed into Greiner black solid bottom 1536-well assay plates. Compounds are then transferred via Kalypsys pin tool equipped with 1536-pin array (10nl slotted pins, V&P Scientific, San Diego, CA). Following an incubation step of 15 min at room temperature, 1ul of Ub-Rho substrate (150nM final concentration) is added to initiate the reaction. The plates are immediately centrifuged at 1000 rpm for 15 seconds, and subsequently transferred to a ViewLux high-throughput CCD imager (PerkinElmer) wherein kinetic measurements of fluorescence are acquired using 480 nm excitation/540 nm emission filter set (6 reads every 60 seconds, see Table 1). All reagents are diluted in an assay buffer consisting of 50mM HEPES (pH 7.8), 0.5mM EDTA, 0.1 mg/ml BSA, 1mM TCEP, and 0.01% Tween-20.
Further: nearly all actives have a fitted effect of over 60% in size.
On the % scale 0 is the no-effect control and ±100 the full control effect; potency means the concentration at half of the fitted maximal effect.

Row | SMILES | Potency | activity change, negative = inhibition
1 | COc1cccc(OC)c1OC(=O)/C=C/c1ccc(C)o1 | inconclusive: 31.6 µM [inhibitor, partial curve, poor fit] | –
2 | O=C(Nc1ccc(Br)cc1)c1cc(S(=O)(=O)Nc2ccccn2)ccc1Cl | inconclusive: 2 µM [inhibitor, full curve, poor fit] | –
3 | CC(C)C1Cc2c(sc(NC(=S)NC(=O)c3ccccc3)c2C#N)CO1 (stereo not drawn) | – | inactive: -19.3%
4 | COc1ccc2[nH]cc(C(=O)CN3CCCC(C)C3)c2c1 (stereo not drawn) | inconclusive: 35.5 µM [inhibitor, partial curve, poor fit] | –
5 | CCCc1cc(=O)oc2cc(C)cc(OCC(=O)NC(Cc3c[nH]c4ccc(O)cc34)C(=O)O)c12 (stereo not drawn) | – | inactive: -22.8%
6 | c1ccc(CNc2nc(NCc3ccco3)nc(N3CCOCC3)n2)cc1 | – | inactive: -26.4%
7 | Cc1cc(/C=C2/NC(=O)NC2=O)c(C)n1-c1ccc(C#N)cc1 | – | inactive: -5.53%
8 | Cc1ccc(C(=O)OC(C)CN2CCN(C)CC2)cc1 (stereo not drawn) | inconclusive: 6.31 µM [inhibitor, single point] | –
9 | CC(C)N1C(=O)/C(=C/c2nc3ccccc3c(=O)n2-c2ccccc2)c2ccccc21 | – | inactive: -17.2%
10 | Cc1ccc(NC(=O)C2CCN(S(=O)(=O)c3cccc4cccnc34)CC2)nc1 | inconclusive: 1 µM [inhibitor, full curve, poor fit] | –
11 | CCC(=O)c1ccc(OCC(O)CN2CCN(C(c3ccccc3)c3ccccc3)CC2)cc1 (stereo not drawn) | – | inactive: -13.3%
12 | CCOC(=O)C1(CCCc2ccccc2)CCN(C(=O)[C@@H]2C[C@@H](C)NC(=S)N2)CC1 | – | inactive: -7.29%
13 | CC(C=NNc1ccc([N+](=O)[O-])cn1)=Cc1ccccc1 | inconclusive: 63.1 µM [inhibitor, single point] | –
14 | COc1ccc(/C=C/C(=O)c2cc3cccc(OC)c3oc2=O)cc1 | inconclusive: 6.31 µM [inhibitor, partial curve] | –
15 | Cc1ccc(S(=O)(=O)c2c(N)n(Cc3ccco3)c3nc4ccccc4nc23)cc1C | inconclusive: 14.1 µM [inhibitor, partial curve] | –
16 | CC(C)c1ccc(N(CC(=O)NCCCN2CCOCC2)S(=O)(=O)c2ccccc2)cc1 | – | inactive: -14.2%
17 | CC(C)C[C@H](NC(=O)c1[nH]cnc1C(=O)Nc1ccc(CNC(=O)OC(C)(C)C)cc1)C(=O)OC(C)(C)C | inconclusive: 7.94 µM [inhibitor, partial curve, poor fit] | –

Quoted from above: nos. 1–2
Row | SMILES | Potency | activity change, negative = inhibition
1 | COc1cccc(OC)c1OC(=O)/C=C/c1ccc(C)o1 | inconclusive: 31.6 µM [inhibitor, partial curve, poor fit] | –
2 | O=C(Nc1ccc(Br)cc1)c1cc(S(=O)(=O)Nc2ccccn2)ccc1Cl | inconclusive: 2 µM [inhibitor, full curve, poor fit] | –

Further records.

Row | SMILES | Potency | activity change, negative = inhibition
18 | C=C1CCN([C@H](C(=O)NCc2ccc(Cl)c(Cl)c2)C(C)C)S(=O)(=O)c2ccccc21 | inconclusive: 35.5 µM [inhibitor, partial curve] | –
19 | CCC1CCCCN1CCCNC(=O)Cn1c(=O)c2cccn2c2cccnc21 (stereo not drawn) | – | inactive: -16.6%
20 | COc1ccc(OCC(=O)Nc2ccc3c(c2)nc(CCN2CCCC2)n3C)cc1 | – | inactive: -26.7%
21 | O=S(=O)(c1ccc2nc(Nc3ccc(F)cc3)ccc2c1)N1CCCC1 | – | inactive: -14.5%
22 | Cc1ccc(NC(=O)Cn2nc(-c3ccccc3)nc(Cc3ccccc3)c2=O)cc1 | inconclusive: 0.316 µM [inhibitor, full curve, poor fit] | –
23 | COc1ccc(C(C)=O)cc1CSc1ccc2c(c1)OCCO2 | inconclusive: 3.16 µM [inhibitor, partial curve] | –
24 | O=c1c2ccccc2nc2ccc(NCc3cccs3)nn12 | inconclusive: 5.62 µM [inhibitor, partial curve] | –
25 | COc1cccc(CNC(=O)c2ccc3c(c2)nc2n3CCC(C)C2)c1 (stereo not drawn) | inconclusive: 12.6 µM [inhibitor, partial curve, poor fit] | –
26 | O=C1CC(c2cccnc2)c2cc3c(cc2N1)OCO3 (stereo not drawn) | inconclusive: 2.82 µM [inhibitor, full curve, poor fit] | –
27 | CCC(C)C(=O)Nc1nc(C)c(-c2csc(Nc3cc(Cl)ccc3OC)n2)s1 (stereo not drawn) | inconclusive: 8.91 µM [inhibitor, partial curve, poor fit] | –
28 | COc1cccc(CNC(=O)c2cc(C)nc3ccccc23)c1 | inconclusive: 6.31 µM [inhibitor, partial curve, poor fit] | –
29 | C=CCOc1ccc(C(c2c(C(=O)O)[nH]c3ccccc23)c2c(C(=O)O)[nH]c3ccccc23)cc1 | inconclusive: 44.7 µM [inhibitor, partial curve, poor fit] | –
30 | COCCNC(=S)N1CCN(c2nc(-c3ccc(Cl)cc3)cs2)CC1 | inconclusive: 39.8 µM [inhibitor, partial curve, poor fit] | –
31 | CCOC(=O)c1cnc2ccc(C)cc2c1Sc1ccccc1C(=O)OC | – | inconclusive: -28.8% [inhibitor]
32 | CCCCn1c(CNC(=O)C23CC4CC(CC(C4)C2)C3)nnc1SCC(=O)Nc1ccc(F)cc1 | – | inactive: -15.2%
33 | Cc1ccccc1C(=O)Nc1ccccc1-c1nc(-c2ccccc2)no1 | inconclusive: 0.251 µM [inhibitor, full curve, poor fit] | –
